No constants are given. Whether binding was seen depends on the method and setting. Binding seen in cells or lysates may run through a third protein. These calls come from enrichment with a bait or labelling near it, and not all partners need be listed.
B1: HSD17B4 (protein, UniProt P51659 1-736)
chain: MGSPLRFDGRVVLVTGAGAGLGRAYALAFAERGALVVVNDLGGDFKGVGKGSLAADKVVEEIRRRGGKAVANYDSVEEGEKVVKTALDAFGRIDVVVNNAGILRDRSFARISDEDWDIIHRVHLRGSFQVTRAAWEHMKKQKYGRIIMTSSASGIYGNFGQANYSAAKLGLLGLANSLAIEGRKSNIHCNTIAPNAGSRMTQTVMPEDLVEALKPEYVAPLVLWLCHESCEENGGLFEVGAGWIGKLRWERTLGAIVRQKNHPMTPEAVKANWKKICDFENASKPQSIQESTGSIIEVLSKIDSEGGVSANHTSRATSTATSGFAGAIGQKLPPFSYAYTELEAIMYALGVGASIKDPKDLKFIYEGSSDFSCLPTFGVIIGQKSMMGGGLAEIPGLSINFAKVLHGEQYLELYKPLPRAGKLKCEAVVADVLDKGSGVVIIMDVYSYSEKELICHNQFSLFLVGSGGFGGKRTSDKVKVAVAIPNRPPDAVLTDTTSLNQAALYRLSGDWNPLHIDPNFASLAGFDKPILHGLCTFGFSARRVLQQFADNDVSRFKAIKARFAKPVYPGQTLQTEMWKEGNRIHFQTKVQETGDIVISNAYVDLAPTSGTSAKTPSEGGKLQSTFVFEEIGRRLKDIGPEVVKKVNAVFEWHITKGGNIGAKWTIDLKSGSGKVYQGPAKGAADTTIILSDEDFMEVVLGKLDPQKAFFSGRLKARGNIMLSQKLQMILKDYAKL
B2: DARS (protein, UniProt P14868 1-501)
chain: MPSASASRKSQEKPREIMDAAEDYAKERYGISSMIQSQEKPDRVLVRVRDLTIQKADEVVWVRARVHTSRAKGKQCFLVLRQQQFNVQALVAVGDHASKQMVKFAANINKESIVDVEGVVRKVNQKIGSCTQQDVELHVQKIYVISLAEPRLPLQLDDAVRPEAEGEEEGRATVNQDTRLDNRVIDLRTSTSQAVFRLQSGICHLFRETLINKGFVEIQTPKIISAASEGGANVFTVSYFKNNAYLAQSPQLYKQMCICADFEKVFSIGPVFRAEDSNTHRHLTEFVGLDIEMAFNYHYHEVMEEIADTMVQIFKGLQERFQTEIQTVNKQFPCEPFKFLEPTLRLEYCEALAMLREAGVEMGDEDDLSTPNEKLLGHLVKEKYDTDFYILDKYPLAVRPFYTMPDPRNPKQSNSYDMFMRGEEILSGAQRIHDPQLLTERALHHGIDLEKIKAYIDSFRFGAPPHAGGGIGLERVTMLFLGLHNVRQTSMFPRDPKRLTP
B3: NACC1 (protein, UniProt Q96RE7 1-527)
chain: MAQTLQMEIPNFGNSILECLNEQRLQGLYCDVSVVVKGHAFKAHRAVLAASSSYFRDLFNNSRSAVVELPAAVQPQSFQQILSFCYTGRLSMNVGDQFLLMYTAGFLQIQEIMEKGTEFFLKVSSPSCDSQGLHAEEAPSSEPQSPVAQTSGWPACSTPLPLVSRVKTEQQESDSVQCMPVAKRLWDSGQKEAGGGGNGSRKMAKFSTPDLAANRPHQPPPPQQAPVVAAAQPAVAAGAGQPAGGVAAAGGVVSGPSTSERTSPGTSSAYTSDSPGSYHNEEDEEEDGGEEGMDEQYRQICNMYTMYSMMNVGQTAEKVEALPEQVAPESRNRIRVRQDLASLPAELINQIGNRCHPKLYDEGDPSEKLELVTGTNVYITRAQLMNCHVSAGTRHKVLLRRLLASFFDRNTLANSCGTGIRSSTNDPRRKPLDSRVLHAVKYYCQNFAPNFKESEMNAIAADMCTNARRVVRKSWMPKVKVLKAEDDAYTTFISETGKIEPDMMGVEHGFETASHEGEAGPSAEALQ
B4: FDFT1 (protein, UniProt P37268 1-417)
chain: MEFVKCLGHPEEFYNLVRFRIGGKRKVMPKMDQDSLSSSLKTCYKYLNQTSRSFAAVIQALDGEMRNAVCIFYLVLRALDTLEDDMTISVEKKVPLLHNFHSFLYQPDWRFMESKEKDRQVLEDFPTISLEFRNLAEKYQTVIADICRRMGIGMAEFLDKHVTSEQEWDKYCHYVAGLVGIGLSRLFSASEFEDPLVGEDTERANSMGLFLQKTNIIRDYLEDQQGGREFWPQEVWSRYVKKLGDFAKPENIDLAVQCLNELITNALHHIPDVITYLSRLRNQSVFNFCAIPQVMAIATLAACYNNQQVFKGAVKIRKGQAVTLMMDATNMPAVKAIIYQYMEEIYHRIPDSDPSSSKTRQIISTIRTQNLPNCQLISRSHYSPIYLSFVMLLAALSWQYLTTLSQVTEDYVQTGEH

Amino acid sequences for entries named in this document (tags omitted).
UniProt P26368: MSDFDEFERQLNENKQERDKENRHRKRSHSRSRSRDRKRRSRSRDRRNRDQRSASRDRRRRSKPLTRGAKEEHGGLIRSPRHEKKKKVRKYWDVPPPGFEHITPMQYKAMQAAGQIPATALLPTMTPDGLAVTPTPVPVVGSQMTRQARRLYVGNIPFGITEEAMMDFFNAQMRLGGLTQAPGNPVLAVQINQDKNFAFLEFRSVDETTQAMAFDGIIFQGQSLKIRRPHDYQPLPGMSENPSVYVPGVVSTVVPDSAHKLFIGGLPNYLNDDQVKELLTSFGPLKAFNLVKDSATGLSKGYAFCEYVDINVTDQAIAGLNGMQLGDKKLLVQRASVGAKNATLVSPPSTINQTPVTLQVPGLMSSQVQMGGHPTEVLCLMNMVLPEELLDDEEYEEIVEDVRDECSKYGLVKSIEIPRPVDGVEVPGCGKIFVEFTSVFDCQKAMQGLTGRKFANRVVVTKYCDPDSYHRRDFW

molecular target: U2AF2-TurboID-HA (human) (UniProt P26368); test: proximity labelling; U2AF2-TurboID-HA induced with doxycycline for 4 h in pluripotent hiPSC; biotinylated proteins purified on streptavidin magnetic beads, LC-MS with label-free quantification; hits: Log2ΔLFQ >= 2 and p <= 0.05, pluripotent against mesoderm U2AF2-TurboID samples

Row | binding | Binder
1 | binds | B1
2 | binds | B2
3 | binds | B3
4 | binds | B4
